# Laboratory results reported in patent publication US3962039A, “Analytical procedure for thyroid hormones” (Center for Laboratory Medicine, priority 1975, dated 1976).
# Tested on: T3-binding sites on serum proteins
# Test: Recovery of triiodothyronine added to charcoal-treated human serum, radioimmunoassay after pepsin-HCl
# [1] = 90 nanograms/100 ml added, calculated 125
# [2] = 180 nanograms/100 ml added, calculated 215
# [3] = 270 nanograms/100 ml added, calculated 305
# [4] = 360 nanograms/100 ml added, calculated 395
# [5] = 450 nanograms/100 ml added, calculated 485
smiles,measurement,setting,value
"N[C@@H](Cc1cc(I)c(Oc2ccc(O)c(I)c2)c(I)c1)C(=O)O [Triiodothyronine, triiodothyronine]",Percent Recovery,[1],94%
same,Triiodothyronine Assayed,[1],118 ng/100 ml
same,Percent Recovery,[2],105%
same,Triiodothyronine Assayed,[2],226 ng/100 ml
same,Percent Recovery,[3],104%
same,Triiodothyronine Assayed,[3],318 ng/100 ml
same,Percent Recovery,[4],94%
same,Triiodothyronine Assayed,[4],370 ng/100 ml
same,Percent Recovery,[5],105%
same,Triiodothyronine Assayed,[5],510 ng/100 ml
same,Triiodothyronine Assayed,"none added, charcoal-treated human serum",35 ng/100 ml
